Measurements: patent publication US6518054B1, “Metallo-endopeptidases” (Rijksuniverstteit Te Groningen, priority 1997, dated 2003)
At least one read-out could not be matched to a standard name with certainty.

Assays:
[1] = kcat/Km for FaGLa at 37° C. (Tris-HCl pH 7.5); assay type: biochemical
[2] = kcat/Km for FaGLa at 37° C. (MOPS pH 7.0); assay type: biochemical; conditions: MOPS pH 7.0, 5 mM CaCl2

B1: TLP-ste: broad-specificity metalloprotease (thermolysin-like protease) produced by Bacillus stearothermophilus CU21, SEQUENCE ID No. 1 (protein)
chain: VAGASTVGVGRGVLGDQKYINTTYSSYYGYYYLQDNTRGSGIFTYDGRNRTVLPGSLWTDGDNQFTASYDAAAVDAHYYAGVVYDYYKNVHGRLSYDGSNAAIRSTVHYGRGYNNAFWNGSQMVYGDGDGQTFLPFSGGIDVVGHELTHAVTDYTAGLVYQNESGAINEAMSDIFGTLVEFYANRNPDWEIGEDIYTPGVAGDALRSMSDPAKYGDPDHYSKRYTGTQDNGGVHTNSGIINKAAYLLSQGGVHYGVSVNGIGRDKMGKIFYRALVYYLTPTSNFSQLRAACVQAAADLYGSTSQEVNSVKQAFNAVGVY
[1]
  FaGLa, kcat/Km: 34 × 10^−3 (M^−1 · S^−1)
[2]
  kcat/Km FaGLa: 30 ± 8 (M^−1.s^−1) 10^−3
